Inconclusive results, whose numbers are uncertain, are shown. Where the call is inconclusive, the potency comes from a doubtful curve fit.
Biological target: Pyruvate kinase (Leishmania mexicana) (UniProt Q27686)
Assay: Confirmation Assay for Inhibitors of Leishmania Mexicana Pyruvate Kinase (LmPK)
Details: purified LmPK, Kinase-Glo ATP luminescence, 1 h;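 active means compounds giving a full or partial concentration-response curve, as inhibitors or activators; inconclusive means weak, top-dose-only or unclear curve responses; inactive means no response at any tested dose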
Source text: NIH Chemical Genomics Center [NCGC] Malcolm Walkinshaw, Hugh Morgan, Linda Gilmore University of Edinburgh, UK MLPCN Grant: 1 R03 MH085697-01 NCGC Assay Overview: Pyruvate kinase (L. Mexicana) (LmPK) enzyme was supplied as a highly purified (>95% pure) sulphate-free preparation from University of Edinburgh, UK and assayed for its ability to generate ATP from ADP using phosphoenolpyruvate (PEP) as a substrate. ATP generation was detected in a coupled reaction by luciferase-mediated luminescence, an ATP-dependent process. […] The enzyme was assayed at an intermediate level of activity to screen for both inhibitors and activators.
NCGC Assay Protocol Summary: Three uL of enzyme mix (kept on ice) in assay buffer (50 mM Imidazole pH7.2, 50 mM KCl, 7 mM MgCl2, 0.01% Tween 20, 0.05% BSA) containing PEP (0.5 mM final concentration) and LmPK (0.1 nM final concentration) was dispensed into white solid bottom 1,536 well microtiter plates. 23 nL of compound were delivered by a pin tool and 1 uL of ADP mix in assay buffer (r.t; 0.1 mM final ADP concentration) was added. Plates were incubated at room temperature for 1 hour. Two uL of detection mix (Kinase-Glo, Promega; at 4 degree Celsius protected from light) was added and luminescence read by a ViewLux (Perkin Elmer) at 1 second exposure/plate. Data were normalized to the uninhibited and AC100 inhibition (no enzyme). […]

The chains behind the UniProt entries cited, without tags or fusion partners. Where a name states a change or a piece, a line headed by the entry shows the natural chain unless it says otherwise.
UniProt Q27686: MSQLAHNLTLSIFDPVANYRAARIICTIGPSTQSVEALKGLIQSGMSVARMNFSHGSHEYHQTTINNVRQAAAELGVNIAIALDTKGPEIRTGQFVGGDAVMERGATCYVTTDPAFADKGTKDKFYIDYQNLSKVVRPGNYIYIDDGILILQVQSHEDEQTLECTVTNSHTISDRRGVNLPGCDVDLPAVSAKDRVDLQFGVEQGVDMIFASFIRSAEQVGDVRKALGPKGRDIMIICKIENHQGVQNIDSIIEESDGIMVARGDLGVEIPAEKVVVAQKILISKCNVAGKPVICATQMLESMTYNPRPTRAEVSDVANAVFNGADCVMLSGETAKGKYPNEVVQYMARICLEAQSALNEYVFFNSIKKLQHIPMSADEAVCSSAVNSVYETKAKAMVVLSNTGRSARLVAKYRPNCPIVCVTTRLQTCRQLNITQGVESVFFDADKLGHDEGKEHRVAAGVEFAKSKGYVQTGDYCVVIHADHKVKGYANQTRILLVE

For `C[C@]12CC[C@@H]3c4cc(O)c(O)cc4CC[C@H]3[C@@H]1CC[C@@H]2O`, the Potency was inconclusive: 9.19 µM [falling, partial curve].
